Publication PMC5312400
No constants are given. Whether binding was seen depends on the method and setting. Binding seen in cells or lysates may run through a third protein. Some binding calls cover weakened binding; strength is not graded here. One block for each substance: values may come before it.

The chains behind the UniProt entries cited, without tags or fusion partners. Where a name states a change or a piece, a line headed by the entry shows the natural chain unless it says otherwise. Residues count along the entry.
UniProt P40337: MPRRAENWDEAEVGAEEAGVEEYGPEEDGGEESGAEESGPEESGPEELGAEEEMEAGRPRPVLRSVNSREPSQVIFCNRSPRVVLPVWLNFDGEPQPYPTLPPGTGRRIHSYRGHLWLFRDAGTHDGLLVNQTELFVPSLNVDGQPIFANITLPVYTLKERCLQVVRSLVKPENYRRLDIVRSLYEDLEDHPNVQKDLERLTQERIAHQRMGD
endogenous pVHL19 (HEK293T): residues 54-213 of P40337
UniProt Q93008: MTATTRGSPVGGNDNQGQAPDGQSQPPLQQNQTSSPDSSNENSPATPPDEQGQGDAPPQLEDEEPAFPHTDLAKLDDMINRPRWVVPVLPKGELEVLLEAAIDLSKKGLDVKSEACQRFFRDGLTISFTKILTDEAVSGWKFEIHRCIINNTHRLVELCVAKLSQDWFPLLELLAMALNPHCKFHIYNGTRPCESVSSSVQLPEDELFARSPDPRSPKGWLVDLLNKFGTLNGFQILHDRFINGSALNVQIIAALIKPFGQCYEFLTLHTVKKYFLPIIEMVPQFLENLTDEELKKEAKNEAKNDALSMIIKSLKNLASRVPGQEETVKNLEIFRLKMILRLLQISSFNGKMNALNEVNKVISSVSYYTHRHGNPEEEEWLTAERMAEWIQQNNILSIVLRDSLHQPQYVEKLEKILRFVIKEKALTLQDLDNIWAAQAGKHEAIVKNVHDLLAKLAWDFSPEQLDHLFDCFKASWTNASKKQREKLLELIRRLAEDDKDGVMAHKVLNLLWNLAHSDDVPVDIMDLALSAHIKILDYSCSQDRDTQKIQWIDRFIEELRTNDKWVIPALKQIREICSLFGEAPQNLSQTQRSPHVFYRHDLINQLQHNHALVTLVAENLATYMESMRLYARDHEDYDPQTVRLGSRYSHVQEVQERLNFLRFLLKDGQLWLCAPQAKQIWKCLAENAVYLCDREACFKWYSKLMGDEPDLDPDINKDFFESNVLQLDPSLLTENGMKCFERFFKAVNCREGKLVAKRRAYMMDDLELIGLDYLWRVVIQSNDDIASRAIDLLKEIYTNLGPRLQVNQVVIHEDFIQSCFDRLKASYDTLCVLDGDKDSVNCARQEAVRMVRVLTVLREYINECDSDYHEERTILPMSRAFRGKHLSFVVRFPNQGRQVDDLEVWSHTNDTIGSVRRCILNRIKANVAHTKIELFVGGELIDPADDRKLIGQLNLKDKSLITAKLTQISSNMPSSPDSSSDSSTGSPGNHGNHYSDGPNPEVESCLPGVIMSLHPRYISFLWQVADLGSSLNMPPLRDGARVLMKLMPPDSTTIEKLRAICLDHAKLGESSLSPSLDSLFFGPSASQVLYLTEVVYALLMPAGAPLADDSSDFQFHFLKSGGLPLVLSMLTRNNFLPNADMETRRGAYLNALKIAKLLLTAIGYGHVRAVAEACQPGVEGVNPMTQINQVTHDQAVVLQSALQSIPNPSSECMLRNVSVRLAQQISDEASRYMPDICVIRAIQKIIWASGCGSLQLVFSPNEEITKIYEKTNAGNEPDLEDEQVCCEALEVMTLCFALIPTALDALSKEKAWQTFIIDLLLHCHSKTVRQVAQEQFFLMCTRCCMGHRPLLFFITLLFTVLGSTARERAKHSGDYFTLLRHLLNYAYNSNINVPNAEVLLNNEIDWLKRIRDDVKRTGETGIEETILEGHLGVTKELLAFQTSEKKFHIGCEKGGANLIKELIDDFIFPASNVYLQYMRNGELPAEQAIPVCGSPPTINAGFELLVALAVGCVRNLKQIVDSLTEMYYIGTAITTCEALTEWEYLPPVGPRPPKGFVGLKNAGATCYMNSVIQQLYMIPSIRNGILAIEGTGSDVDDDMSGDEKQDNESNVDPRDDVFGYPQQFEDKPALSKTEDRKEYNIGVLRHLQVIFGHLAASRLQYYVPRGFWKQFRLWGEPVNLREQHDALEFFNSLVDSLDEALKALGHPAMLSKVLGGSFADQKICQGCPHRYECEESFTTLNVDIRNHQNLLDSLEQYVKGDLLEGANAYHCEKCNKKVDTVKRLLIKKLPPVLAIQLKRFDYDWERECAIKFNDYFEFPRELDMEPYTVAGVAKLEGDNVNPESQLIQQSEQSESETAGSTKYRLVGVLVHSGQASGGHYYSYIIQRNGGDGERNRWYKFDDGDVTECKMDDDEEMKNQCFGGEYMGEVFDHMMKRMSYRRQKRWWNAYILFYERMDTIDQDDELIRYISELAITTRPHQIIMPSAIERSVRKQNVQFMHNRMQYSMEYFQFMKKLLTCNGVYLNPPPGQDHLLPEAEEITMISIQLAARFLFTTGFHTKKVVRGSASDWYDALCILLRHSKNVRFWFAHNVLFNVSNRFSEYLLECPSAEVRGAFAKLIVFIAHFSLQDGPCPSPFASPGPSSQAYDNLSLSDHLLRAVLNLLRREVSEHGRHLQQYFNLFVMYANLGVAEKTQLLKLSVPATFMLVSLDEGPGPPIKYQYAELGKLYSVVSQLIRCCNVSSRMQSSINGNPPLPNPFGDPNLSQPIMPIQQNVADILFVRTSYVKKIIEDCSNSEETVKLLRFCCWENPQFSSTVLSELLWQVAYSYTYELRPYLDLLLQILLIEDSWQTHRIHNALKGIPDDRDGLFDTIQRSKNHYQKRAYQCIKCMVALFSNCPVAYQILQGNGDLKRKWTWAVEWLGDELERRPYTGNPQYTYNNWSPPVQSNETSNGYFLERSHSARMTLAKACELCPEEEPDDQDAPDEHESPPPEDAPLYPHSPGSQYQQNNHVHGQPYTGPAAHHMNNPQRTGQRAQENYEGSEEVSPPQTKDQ
UniProt Q9HCE7: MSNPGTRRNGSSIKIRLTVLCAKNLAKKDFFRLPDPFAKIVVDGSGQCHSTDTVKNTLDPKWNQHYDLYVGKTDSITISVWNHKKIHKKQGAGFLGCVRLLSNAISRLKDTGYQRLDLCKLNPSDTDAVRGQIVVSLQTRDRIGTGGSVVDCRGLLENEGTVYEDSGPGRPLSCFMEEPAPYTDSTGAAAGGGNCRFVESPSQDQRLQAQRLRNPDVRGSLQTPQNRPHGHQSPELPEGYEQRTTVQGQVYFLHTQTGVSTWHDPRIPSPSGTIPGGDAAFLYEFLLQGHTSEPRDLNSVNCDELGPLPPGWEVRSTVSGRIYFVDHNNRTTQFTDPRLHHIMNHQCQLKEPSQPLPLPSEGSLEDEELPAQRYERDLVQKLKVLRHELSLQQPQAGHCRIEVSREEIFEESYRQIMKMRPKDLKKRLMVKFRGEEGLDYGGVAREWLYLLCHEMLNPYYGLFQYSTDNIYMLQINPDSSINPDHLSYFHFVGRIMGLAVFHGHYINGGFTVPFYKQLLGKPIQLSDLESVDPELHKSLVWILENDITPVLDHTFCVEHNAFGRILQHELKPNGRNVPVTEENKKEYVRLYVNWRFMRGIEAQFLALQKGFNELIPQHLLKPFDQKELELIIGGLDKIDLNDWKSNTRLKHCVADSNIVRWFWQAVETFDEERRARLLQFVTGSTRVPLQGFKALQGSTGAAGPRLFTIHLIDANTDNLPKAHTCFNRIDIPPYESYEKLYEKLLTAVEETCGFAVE

How the values were obtained:
Flag-tagged HUWE1 = Flag-tagged HUWE1 (UniProt Q7Z6Z7); assay: co-IP; HEK293T cells transiently transfected with Flag-tagged HUWE1 and HA-tagged pVHL, MG132 treatment; two co-immunoprecipitations
[1] = molecular target: HA-tagged pVHL (786-0 cells) (UniProt P40337); assay: co-IP; 786-0 cells infected with HA empty control or HA-VHL, MG132 10 μM for 4 hours; immunoprecipitation with anti-HA, blot with anti-USP9X and anti-HA; 0.5% NP40 lysis buffer
[2] = molecular target: endogenous USP9X (human (endogenous in 786-0, HEK293T, CAKI)) (UniProt Q93008); assay: co-IP; endogenous proteins, HEK293T cells treated with MG132 (10 μM for 4 hours); immunoprecipitation with anti-USP9X, blot with anti-VHL
[3] = molecular target: endogenous USP9X (human (endogenous in 786-0, HEK293T, CAKI)) (UniProt Q93008); assay: co-IP; endogenous proteins, CAKI cell lysates; immunoprecipitation with anti-USP9X or Smurf1 antibodies, then blotted
[4] = molecular target: endogenous Smurf1 (CAKI) (human (endogenous in CAKI)) (UniProt Q9HCE7); assay: as above

binding (Flag-tagged HUWE1): binds
Substance: HA-tagged pVHL (HEK293T, transient) (from UniProt P40337 1-213)

binding [1]: binds
Substance: endogenous USP9X (from UniProt Q93008 1-2554) (enzyme)

binding [2]: binds
Substance: endogenous pVHL19 (HEK293T) (from UniProt P40337-3 1-160)

binding [3]: binds
binding [4]: binds
Substance: endogenous pVHL (CAKI) (from UniProt P40337 1-213)
